This note sets out measurements from publication PMC2739719.

Sequences of proteins named here, by UniProt entry; tags and fusion partners are left off.
UniProt Q13547: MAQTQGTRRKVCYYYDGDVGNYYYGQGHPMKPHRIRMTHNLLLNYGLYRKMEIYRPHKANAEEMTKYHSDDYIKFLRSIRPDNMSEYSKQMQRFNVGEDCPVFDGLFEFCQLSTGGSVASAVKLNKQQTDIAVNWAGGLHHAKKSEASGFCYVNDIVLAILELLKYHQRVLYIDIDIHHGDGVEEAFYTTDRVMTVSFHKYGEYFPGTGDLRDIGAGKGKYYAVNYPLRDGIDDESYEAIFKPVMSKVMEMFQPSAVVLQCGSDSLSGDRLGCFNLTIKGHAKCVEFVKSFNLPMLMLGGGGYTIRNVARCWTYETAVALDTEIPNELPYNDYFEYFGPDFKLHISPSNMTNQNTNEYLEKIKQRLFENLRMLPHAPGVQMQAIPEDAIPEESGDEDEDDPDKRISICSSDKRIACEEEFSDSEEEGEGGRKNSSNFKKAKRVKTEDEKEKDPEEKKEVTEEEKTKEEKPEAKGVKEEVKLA
UniProt Q08945: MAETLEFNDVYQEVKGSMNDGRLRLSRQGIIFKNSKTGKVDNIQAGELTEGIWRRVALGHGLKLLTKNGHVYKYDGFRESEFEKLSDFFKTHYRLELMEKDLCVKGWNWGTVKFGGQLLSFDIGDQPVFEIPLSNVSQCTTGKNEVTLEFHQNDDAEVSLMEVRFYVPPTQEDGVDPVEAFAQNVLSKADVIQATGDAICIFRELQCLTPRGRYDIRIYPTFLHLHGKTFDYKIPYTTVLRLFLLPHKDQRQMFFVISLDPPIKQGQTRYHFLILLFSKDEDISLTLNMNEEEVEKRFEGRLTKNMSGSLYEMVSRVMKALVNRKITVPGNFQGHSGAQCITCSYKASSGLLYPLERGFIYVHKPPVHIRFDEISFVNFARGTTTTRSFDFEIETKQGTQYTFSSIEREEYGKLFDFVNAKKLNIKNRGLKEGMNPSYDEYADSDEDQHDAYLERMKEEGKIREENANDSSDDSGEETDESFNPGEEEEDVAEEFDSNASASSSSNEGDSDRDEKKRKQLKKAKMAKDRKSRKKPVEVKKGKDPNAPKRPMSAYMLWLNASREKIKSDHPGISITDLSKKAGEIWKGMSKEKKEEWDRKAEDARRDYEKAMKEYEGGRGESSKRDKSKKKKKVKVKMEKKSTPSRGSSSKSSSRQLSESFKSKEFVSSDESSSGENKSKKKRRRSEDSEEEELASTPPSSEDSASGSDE
UniProt P15924: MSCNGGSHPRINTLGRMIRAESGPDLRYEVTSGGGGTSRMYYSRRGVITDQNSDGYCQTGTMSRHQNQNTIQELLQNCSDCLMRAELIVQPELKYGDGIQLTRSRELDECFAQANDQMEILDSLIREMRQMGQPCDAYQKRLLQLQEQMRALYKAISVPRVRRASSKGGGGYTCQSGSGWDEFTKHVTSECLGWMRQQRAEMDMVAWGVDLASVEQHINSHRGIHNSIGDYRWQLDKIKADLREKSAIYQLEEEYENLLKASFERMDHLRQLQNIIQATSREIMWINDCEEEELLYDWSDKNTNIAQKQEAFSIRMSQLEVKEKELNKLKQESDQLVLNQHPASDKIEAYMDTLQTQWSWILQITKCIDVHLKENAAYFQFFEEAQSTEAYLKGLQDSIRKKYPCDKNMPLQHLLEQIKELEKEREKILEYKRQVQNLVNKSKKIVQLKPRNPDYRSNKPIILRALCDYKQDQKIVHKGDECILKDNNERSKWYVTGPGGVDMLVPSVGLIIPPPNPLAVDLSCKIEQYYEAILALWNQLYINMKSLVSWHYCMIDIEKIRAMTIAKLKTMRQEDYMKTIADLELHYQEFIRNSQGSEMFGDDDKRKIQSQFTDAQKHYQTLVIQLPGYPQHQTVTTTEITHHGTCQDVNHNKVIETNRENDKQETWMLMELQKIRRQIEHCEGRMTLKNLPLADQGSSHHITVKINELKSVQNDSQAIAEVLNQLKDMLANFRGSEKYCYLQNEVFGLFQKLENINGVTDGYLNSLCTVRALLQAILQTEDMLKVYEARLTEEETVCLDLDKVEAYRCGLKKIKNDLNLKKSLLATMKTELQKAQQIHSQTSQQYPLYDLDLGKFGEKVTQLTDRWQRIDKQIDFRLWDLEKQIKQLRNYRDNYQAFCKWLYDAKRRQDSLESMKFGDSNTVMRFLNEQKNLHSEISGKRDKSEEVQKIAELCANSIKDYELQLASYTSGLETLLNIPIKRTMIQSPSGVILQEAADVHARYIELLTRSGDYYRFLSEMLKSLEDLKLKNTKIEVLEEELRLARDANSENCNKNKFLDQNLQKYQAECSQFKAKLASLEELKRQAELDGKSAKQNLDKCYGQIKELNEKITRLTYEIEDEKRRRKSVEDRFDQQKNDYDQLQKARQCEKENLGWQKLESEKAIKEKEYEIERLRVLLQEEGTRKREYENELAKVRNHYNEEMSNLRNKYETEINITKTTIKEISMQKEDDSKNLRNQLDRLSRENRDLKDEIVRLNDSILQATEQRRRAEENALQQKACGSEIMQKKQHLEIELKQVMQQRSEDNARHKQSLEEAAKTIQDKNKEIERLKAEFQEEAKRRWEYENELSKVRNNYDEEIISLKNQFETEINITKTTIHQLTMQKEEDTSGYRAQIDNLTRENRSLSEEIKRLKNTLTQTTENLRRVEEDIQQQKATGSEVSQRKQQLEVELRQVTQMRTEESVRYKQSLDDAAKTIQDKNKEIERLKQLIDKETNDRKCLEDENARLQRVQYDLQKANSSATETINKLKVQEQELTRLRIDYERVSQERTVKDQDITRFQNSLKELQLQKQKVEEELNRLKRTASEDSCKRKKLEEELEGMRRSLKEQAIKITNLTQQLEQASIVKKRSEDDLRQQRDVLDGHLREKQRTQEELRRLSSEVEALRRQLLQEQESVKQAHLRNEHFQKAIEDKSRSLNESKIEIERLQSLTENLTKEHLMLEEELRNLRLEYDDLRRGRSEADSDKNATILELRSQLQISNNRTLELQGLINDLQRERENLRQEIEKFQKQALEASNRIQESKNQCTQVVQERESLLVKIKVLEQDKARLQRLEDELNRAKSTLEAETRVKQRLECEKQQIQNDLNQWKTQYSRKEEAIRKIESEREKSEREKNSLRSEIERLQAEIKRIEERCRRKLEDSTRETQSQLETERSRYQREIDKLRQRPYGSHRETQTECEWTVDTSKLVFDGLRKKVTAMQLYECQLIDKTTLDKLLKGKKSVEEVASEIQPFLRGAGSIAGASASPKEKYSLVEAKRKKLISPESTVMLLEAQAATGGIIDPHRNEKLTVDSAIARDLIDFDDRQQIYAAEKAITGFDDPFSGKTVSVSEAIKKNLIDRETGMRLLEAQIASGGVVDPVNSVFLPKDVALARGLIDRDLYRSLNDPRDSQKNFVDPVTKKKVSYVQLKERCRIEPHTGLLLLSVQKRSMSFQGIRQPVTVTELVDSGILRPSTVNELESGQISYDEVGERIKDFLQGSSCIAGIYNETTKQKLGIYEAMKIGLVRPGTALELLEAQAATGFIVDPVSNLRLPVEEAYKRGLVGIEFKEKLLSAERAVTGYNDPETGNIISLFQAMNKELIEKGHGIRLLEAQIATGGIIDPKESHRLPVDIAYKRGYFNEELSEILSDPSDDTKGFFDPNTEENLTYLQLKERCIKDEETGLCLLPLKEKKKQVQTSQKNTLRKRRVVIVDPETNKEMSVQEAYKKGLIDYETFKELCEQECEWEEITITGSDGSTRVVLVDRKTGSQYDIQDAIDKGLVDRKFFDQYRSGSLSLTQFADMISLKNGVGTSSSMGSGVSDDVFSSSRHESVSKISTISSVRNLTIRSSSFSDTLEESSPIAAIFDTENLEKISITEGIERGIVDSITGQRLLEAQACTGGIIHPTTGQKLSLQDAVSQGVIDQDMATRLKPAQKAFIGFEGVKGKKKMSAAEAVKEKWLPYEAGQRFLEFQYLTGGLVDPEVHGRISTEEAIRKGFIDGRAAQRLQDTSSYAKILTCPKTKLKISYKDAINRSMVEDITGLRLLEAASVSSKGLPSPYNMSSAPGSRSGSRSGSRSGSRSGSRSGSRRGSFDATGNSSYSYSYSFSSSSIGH
UniProt P14618: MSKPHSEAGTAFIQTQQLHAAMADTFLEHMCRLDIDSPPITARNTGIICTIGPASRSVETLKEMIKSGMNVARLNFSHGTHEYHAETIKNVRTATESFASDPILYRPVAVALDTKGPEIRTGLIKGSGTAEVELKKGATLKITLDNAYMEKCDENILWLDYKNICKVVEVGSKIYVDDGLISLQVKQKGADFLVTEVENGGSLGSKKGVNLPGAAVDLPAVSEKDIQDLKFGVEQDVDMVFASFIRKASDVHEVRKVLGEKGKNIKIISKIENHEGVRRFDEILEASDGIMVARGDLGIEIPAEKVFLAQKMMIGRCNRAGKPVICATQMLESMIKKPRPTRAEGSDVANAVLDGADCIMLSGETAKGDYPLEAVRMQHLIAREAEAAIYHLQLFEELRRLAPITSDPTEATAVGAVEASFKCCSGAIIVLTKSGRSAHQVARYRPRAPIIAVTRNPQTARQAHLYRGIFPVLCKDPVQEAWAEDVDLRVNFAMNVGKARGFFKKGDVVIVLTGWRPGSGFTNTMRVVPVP
UniProt Q14839: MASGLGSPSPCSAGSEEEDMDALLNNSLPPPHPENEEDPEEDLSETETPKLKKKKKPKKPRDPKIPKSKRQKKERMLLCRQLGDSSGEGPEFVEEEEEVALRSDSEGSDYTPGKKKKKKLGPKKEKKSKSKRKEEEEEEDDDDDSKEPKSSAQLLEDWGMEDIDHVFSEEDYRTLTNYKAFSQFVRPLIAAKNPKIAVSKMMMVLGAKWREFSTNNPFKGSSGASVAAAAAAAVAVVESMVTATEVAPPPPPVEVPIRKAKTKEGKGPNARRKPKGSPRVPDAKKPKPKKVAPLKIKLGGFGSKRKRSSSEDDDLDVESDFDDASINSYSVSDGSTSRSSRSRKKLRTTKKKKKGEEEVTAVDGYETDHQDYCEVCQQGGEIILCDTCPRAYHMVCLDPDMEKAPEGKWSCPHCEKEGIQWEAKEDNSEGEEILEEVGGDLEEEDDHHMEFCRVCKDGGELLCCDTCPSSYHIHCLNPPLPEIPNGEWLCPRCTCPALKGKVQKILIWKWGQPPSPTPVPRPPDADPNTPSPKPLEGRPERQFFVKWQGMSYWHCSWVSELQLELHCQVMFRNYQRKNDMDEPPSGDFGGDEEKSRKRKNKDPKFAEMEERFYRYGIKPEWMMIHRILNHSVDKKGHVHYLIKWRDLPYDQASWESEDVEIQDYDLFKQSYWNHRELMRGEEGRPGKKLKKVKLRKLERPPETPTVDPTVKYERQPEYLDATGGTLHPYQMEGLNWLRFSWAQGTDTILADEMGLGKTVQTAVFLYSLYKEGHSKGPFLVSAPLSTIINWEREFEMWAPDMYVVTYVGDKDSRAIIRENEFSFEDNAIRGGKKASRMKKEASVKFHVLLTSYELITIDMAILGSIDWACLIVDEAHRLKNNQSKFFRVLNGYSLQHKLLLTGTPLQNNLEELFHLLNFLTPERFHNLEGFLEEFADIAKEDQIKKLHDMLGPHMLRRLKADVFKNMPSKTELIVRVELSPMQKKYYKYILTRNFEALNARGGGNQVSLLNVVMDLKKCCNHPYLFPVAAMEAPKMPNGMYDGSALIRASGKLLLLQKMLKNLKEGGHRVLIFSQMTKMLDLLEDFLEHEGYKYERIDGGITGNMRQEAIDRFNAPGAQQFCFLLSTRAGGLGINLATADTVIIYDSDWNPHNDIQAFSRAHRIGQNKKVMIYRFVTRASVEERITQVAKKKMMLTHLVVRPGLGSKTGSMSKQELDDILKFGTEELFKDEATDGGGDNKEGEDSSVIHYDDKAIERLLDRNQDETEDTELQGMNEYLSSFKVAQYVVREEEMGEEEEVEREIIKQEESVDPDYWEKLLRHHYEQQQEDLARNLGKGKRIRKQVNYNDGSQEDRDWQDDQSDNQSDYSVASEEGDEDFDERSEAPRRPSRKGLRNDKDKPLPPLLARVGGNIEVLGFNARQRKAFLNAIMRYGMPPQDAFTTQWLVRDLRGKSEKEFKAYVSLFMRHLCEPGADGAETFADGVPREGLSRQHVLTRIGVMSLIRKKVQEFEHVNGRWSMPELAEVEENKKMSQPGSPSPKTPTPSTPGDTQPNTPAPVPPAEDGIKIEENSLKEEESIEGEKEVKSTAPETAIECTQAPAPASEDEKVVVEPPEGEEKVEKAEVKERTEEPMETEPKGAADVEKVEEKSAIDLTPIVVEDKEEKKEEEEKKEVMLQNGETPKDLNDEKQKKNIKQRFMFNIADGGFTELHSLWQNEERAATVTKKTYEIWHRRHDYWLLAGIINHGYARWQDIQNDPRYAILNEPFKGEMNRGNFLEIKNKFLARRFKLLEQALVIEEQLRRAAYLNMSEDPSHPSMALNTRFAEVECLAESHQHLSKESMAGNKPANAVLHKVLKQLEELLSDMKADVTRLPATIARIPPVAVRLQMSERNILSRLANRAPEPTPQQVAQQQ

The chains are these.
T1: recombinant purified His-tagged human BAF (H6BAF) dimers (human) (UniProt O75531)
T1 sequence: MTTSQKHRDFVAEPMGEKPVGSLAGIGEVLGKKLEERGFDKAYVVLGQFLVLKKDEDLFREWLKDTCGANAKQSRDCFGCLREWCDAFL

B1: ATP synthase F0 complex subunit F6, H+ transporting (protein, UniProt P18859 33-108)
chain: NKELDPIQKLFVDKIREYKSKRQTSGGPVDASSEYQQELERELFKLKQMFGNADMNTFPTFKFEDPKFEVIEKPQA
B2: Limbin (protein, UniProt Q86UK5 27-1308)
chain: GRGCLGASSRPRWRPLGAQPPRDPQVAPRSGPGLRIPPGRSGAGPESSTQDLPCMIWPKVECCHFKTAVEAPLGMKLDKKMEVFIPLSTSAASSGPWAHSLFAFIPSWPKKNLFKRESPITHRLYGDISREVQGTSENGVIFQKCALVSGSSEAQTARIWLLVNNTKTTSSANLSELLLLDSIAGLTIWDSVGNRTSEGFQAFSKKFLQVGDAFAVSYAATLQAGDLGNGESLKLPAQLTFQSSSRNRTQLKVLFSITAEENVTVLPHHGLHAAGFFIAFLLSLVLTWAALFLMVRYQCLKGNMLTRHRVWQYESKLEPLPFTSADGVNEDLSLNDQMIDILSSEDPGSMLQALEELEIATLNRADADLEACRTQISKDIIALLLKNLTSSGHLSPQVERKMSAVFKKQFLLLENEIQEEYDRKMVALTAECDLETRKKMENQYQREMMAMEEAEELLKRAGERSAVECSNLLRTLHGLEQEHLRKSLALQQEEDFAKAHRQLAVFQRNELHSIFFTQIKSAIFKGELKPEAAKMLLQNYSKIQENVEELMDFFQASKRYHLSKRFGHREYLVQNLQSSETRVQGLLSTAAAQLTHLIQKHERAGYLDEDQMEMLLERAQTEVFSIKQKLDNDLKQEKKKLHQKLITKRRRELLQKHREQRREQASVGEAFRTVEDAGQYLHQKRSLMEEHGATLEELQERLDQAALDDLRTLTLSLFEKATDELRRLQNSAMTQELLKRGVPWLFLQQILEEHGKEMAARAEQLEGEERDRDQEGVQSVRQRLKDDAPEAVTEEQAELRRWEHLIFMKLCSSVFSLSEEELLRMRQEVHGCFAQMDRSLALPKIRARVLLQQFQTAWREAEFVKLDQAVAAPELQQQSKVRKSRSKSKSKGELLKKCIEDKIHLCEEQASEDLVEKVRGELLRERVQRMEAQEGGFAQSLVALQFQKASRVTETLSAYTALLSIQDLLLEELSASEMLTKSACTQILESHSRELQELERKLEDQLVQQEAAQQQQALASWQQWVADGPGILNEPGEVDSERQVSTVLHQALSKSQTLLEQHQQCLREEQQNSVVLEDLLENMEADTFATLCSQELRLASYLARMAMVPGATLRRLLSVVLPTASQPQLLALLDSATERHVDHAAESDGGAEQADVGRRRKHQSWWQALDGKLRGDLISRGLEKMLWARKRKQSILKKTCLPLRERMIFSGKGSWPHLSLEPIGELAPVPIVGAETIDLLNTGEKLFIFRNPKEPEISLHVPPRKKKNFLNAKKAMRALGMD
B3: ACIN1 (apoptotic chromatin condensation inducer 1) homolog (protein, UniProt Q9UKV3 1-1341)
chain: MWRRKHPRTSGGTRGVLSGNRGVEYGSGRGHLGTFEGRWRKLPKMPEAVGTDPSTSRKMAELEEVTLDGKPLQALRVTDLKAALEQRGLAKSGQKSALVKRLKGALMLENLQKHSTPHAAFQPNSQIGEEMSQNSFIKQYLEKQQELLRQRLEREAREAAELEEASAESEDEMIHPEGVASLLPPDFQSSLERPELELSRHSPRKSSSISEEKGDSDDEKPRKGERRSSRVRQARAAKLSEGSQPAEEEEDQETPSRNLRVRADRNLKTEEEEEEEEEEEEDDEEEEGDDEGQKSREAPILKEFKEEGEEIPRVKPEEMMDERPKTRSQEQEVLERGGRFTRSQEEARKSHLARQQQEKEMKTTSPLEEEEREIKSSQGLKEKSKSPSPPRLTEDRKKASLVALPEQTASEEETPPPLLTKEASSPPPHPQLHSEEEIEPMEGPAPAVLIQLSPPNTDADTRELLVSQHTVQLVGGLSPLSSPSDTKAESPAEKVPEESVLPLVQKSTLADYSAQKDLEPESDRSAQPLPLKIEELALAKGITEECLKQPSLEQKEGRRASHTLLPSHRLKQSADSSSSRSSSSSSSSSRSRSRSPDSSGSRSHSPLRSKQRDVAQARTHANPRGRPKMGSRSTSESRSRSRSRSRSASSNSRKSLSPGVSRDSSTSYTETKDPSSGQEVATPPVPQLQVCEPKERTSTSSSSVQARRLSQPESAEKHVTQRLQPERGSPKKCEAEEAEPPAATQPQTSETQTSHLPESERIHHTVEEKEEVTMDTSENRPENDVPEPPMPIADQVSNDDRPEGSVEDEEKKESSLPKSFKRKISVVSATKGVPAGNSDTEGGQPGRKRRWGASTATTQKKPSISITTESLKSLIPDIKPLAGQEAVVDLHADDSRISEDETERNGDDGTHDKGLKICRTVTQVVPAEGQENGQREEEEEEKEPEAEPPVPPQVSVEVALPPPAEHEVKKVTLGDTLTRRSISQQKSGVSITIDDPVRTAQVPSPPRGKISNIVHISNLVRPFTLGQLKELLGRTGTLVEEAFWIDKIKSHCFVTYSTVEEAVATRTALHGVKWPQSNPKFLCADYAEQDELDYHRGLLVDRPSETKTEEQGIPRPLHPPPPPPVQPPQHPRAEQREQERAVREQWAEREREMERRERTRSEREWDRDKVREGPRSRSRSRDRRRKERAKSKEKKSEKKEKAQEEPPAKLLDDLFRKTKAAPCIYWLPLTDSQIVQKEAERAERAKEREKRRKEQEEEEQKEREKEAERERNRQLEREKRREHSRERDRERERERERDRGDRDRDRERDRERGRERDRRDTKRHSRSRSRSTPVRDRGGRR
B4: Splicing factor arg/ser rich 10 (protein, UniProt P62995 1-288)
chain: MSDSGEQNYGERESRSASRSGSAHGSGKSARHTPARSRSKEDSRRSRSKSRSRSESRSRSRRSSRRHYTRSRSRSRSHRRSRSRSYSRDYRRRHSHSHSPMSTRRRHVGNRANPDPNCCLGVFGLSLYTTERDLREVFSKYGPIADVSIVYDQQSRRSRGFAFVYFENVDDAKEAKERANGMELDGRRIRVDFSITKRPHTPTPGIYMGRPTYGSSRRRDYYDRGYDRGYDDRDYYSRSYRGGGGGGGGWRAAQDRDQIYRRRSPSPYYSRGGYRSRSRSRSYSPRRY

Results are given in words; binding and its absence hold for the method and conditions named. Binding seen in cells or lysates may run through a third protein. These calls come from enrichment with a bait or labelling near it, and not all partners need be listed. Sequences can lack the tags named with a protein.

This experiment has as its target T1, recombinant purified His-tagged human BAF (H6BAF) dimers (human). Description: affinity purification with mass spectrometry; 30 µg H6BAF dimers on Ni-NTA beads, 500 µg pre-cleared HeLa nuclear lysate (benzonase-treated), 3 hrs 4°C; eluted with 0.3 M then 1 M NaCl; LC-MS/MS of eluates; Ni beads alone as control; only the target purified.
For “GATA zinc finger domain containing 2B (from UniProt Q8WXI9 1-593)”, the binding result is reported as “binds”.

For “Cytochrome C oxidase, Chain F (human (endogenous in HeLa))”, the binding entry is on record as “binds”. Take “histone deacetylase 1 (from UniProt Q13547 1-482)”: the binding entry is given as “binds”. The result for “Damage-specific DNA binding protein 2 (from UniProt Q92466 1-427)” reads “binds”.

For LOC690956 (human (endogenous in HeLa)), the binding entry is reported as “binds”.

Regarding “HP1 beta/CBX1 (from UniProt P83916 1-185)”, the binding result was “binds”.

Consider “HP1 gamma/CBX3 (from UniProt Q13185 1-183)”, for which the binding entry is given as “binds”. The result for “SMARCC2/BAF170 (from UniProt Q8TAQ2 1-1214)” reads “binds”; that for TMPO/LAP2 (human (endogenous in HeLa)), “binds”.

“structure specific recognition protein 1 (from UniProt Q08945 1-709)”: the binding entry was “binds”. Consider “Damage-specific DNA binding protein 1 (from UniProt Q16531 1-1140)”, for which the binding entry was “binds”. For “SMARCE1/BAF57 (from UniProt Q969G3 1-411)”, the binding result is given as “binds”. For “Desmoplakin I (DSP) (from UniProt P15924 1-2871)” the value was “binds”; for “Euchromatic histone-lysine N-methyltransferase 2 isoform a (EHMT2) (from UniProt Q96KQ7 1-1210)”, “binds”; for “actin-like 6A/BAF53a (from UniProt O96019 1-429)”, “binds”. The result for “Filamin alpha (from UniProt P21333 1-2647)” reads “binds”; that for “Probable transcription factor requiem (from UniProt Q92785 1-391)”, “binds”; that for Tektin 1 (from UniProt Q969V4 1-418), “binds”. The result for Keratin 5 (from UniProt P13647 1-590) reads “binds”; that for Keratin 6A (from UniProt P02538 1-564), “binds”; that for “nuclear mitotic apparatus protein 1 (from UniProt Q14980 1-2115)”, “binds”. Consider “High mobility group AT-hook 1 (from UniProt P17096 1-107)”, for which the binding entry is “binds”. For “Mediator of DNA damage checkpoint 1 (from UniProt Q14676 1-2089)” the value was “binds”; for “SMARCA2/BAF190 (from UniProt P51531 1-1590)”, “binds”. For “Pyruvate kinase 3 (from UniProt P14618 1-531)” the value was “binds”; for Aprataxin (from UniProt Q7Z2E3 1-356), “binds”. For RECQL/RecQ1 (from UniProt P46063 1-649) the value was “binds”; for Keratin 1 (from UniProt P04264 1-644), “binds”. With “Type I keratin 16 (from UniProt P08779 1-473)”, the binding result was “binds”. For “Dpy-30-like protein (from UniProt Q9C005 1-99)” the value was “binds”; for XP_573984 (human (endogenous in HeLa)), “binds”; for “retinoblastoma binding protein 4 (from UniProt Q09028 1-425)”, “binds”. The result for “B-cell CLL/lymphoma 7 protein family member C (from UniProt Q8WUZ0 1-217)” reads “binds”. On to “Chromodomain helicase DNA binding protein 4 (from UniProt Q14839 1-1912)”, for which the binding entry was “binds”. The result for “Chromatin-specific transcription elongation factor large subunit (from UniProt Q9Y5B9 1-1047)” reads “binds”.

On to “poly(ADP-ribose) polymerase 1 (from UniProt P09874 1-1014)”, for which the binding entry was “binds”. For LEDGF/p75 (from UniProt O75475 1-530) the value was “binds”; for “Small nuclear ribonucleoprotein D3 (from UniProt P62318 1-126)”, “binds”. In the case of Lamin B1 (from UniProt P20700 1-586), the binding entry is recorded as “binds”. The result for “HP1 alpha/CBX5 (from UniProt P45973 1-191)” reads “binds”; that for B1, “binds”; that for B2, “binds”. For B3 the value was “binds”; for B4, “binds”.
